Results are given in words; binding and its absence hold for the method and conditions named. Binding seen in cells or lysates may run through a third protein. Some binding calls cover weakened binding; strength is not graded here. Blank lines part the entries; values can stand above or below the molecule they belong to.
What was measured:
[1] = target: T1, GM130, cis-Golgi matrix protein (rat (endogenous in INS-1)) (UniProt Q62839); test: co-IP; lysates of transfected cells precipitated with GM130 antibody on agarose/protein A-Sepharose beads (2 ug antibody, 4 h, 4 °C), blotted with HA and GM130 antibodies; cells treated with DMSO, 10 uM or 100 uM carbamazepine for 16 h (Carb dose-dependently reduced the co-precipitate)
T1 sequence: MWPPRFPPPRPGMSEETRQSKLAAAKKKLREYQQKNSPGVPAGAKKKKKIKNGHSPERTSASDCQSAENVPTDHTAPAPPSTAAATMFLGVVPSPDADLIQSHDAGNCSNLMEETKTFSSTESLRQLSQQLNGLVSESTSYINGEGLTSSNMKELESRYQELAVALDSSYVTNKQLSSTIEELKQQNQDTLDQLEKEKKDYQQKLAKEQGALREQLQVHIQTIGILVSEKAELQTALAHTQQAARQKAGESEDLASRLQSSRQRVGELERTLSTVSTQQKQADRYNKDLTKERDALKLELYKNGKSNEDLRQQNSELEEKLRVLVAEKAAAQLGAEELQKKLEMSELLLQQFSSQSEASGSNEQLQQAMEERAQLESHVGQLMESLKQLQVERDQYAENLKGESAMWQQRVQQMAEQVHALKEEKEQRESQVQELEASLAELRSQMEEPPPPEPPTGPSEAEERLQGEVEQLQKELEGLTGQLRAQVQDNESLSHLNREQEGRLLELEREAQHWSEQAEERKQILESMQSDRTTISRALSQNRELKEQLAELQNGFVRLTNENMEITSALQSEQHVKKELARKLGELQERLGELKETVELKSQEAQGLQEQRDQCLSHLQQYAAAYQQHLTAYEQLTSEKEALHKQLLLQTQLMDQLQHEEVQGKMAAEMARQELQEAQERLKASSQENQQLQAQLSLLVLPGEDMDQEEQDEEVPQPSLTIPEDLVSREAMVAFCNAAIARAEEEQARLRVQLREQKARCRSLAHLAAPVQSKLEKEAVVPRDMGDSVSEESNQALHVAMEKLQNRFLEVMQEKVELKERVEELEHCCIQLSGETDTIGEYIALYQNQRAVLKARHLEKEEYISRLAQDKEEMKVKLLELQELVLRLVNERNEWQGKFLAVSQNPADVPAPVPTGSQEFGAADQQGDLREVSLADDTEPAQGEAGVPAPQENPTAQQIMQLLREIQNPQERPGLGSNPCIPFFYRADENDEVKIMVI

Sequences of proteins named here, by UniProt entry; tags and fusion partners are left off. A change or cut given only in a name is not applied to a line headed by its entry.
UniProt Q09427: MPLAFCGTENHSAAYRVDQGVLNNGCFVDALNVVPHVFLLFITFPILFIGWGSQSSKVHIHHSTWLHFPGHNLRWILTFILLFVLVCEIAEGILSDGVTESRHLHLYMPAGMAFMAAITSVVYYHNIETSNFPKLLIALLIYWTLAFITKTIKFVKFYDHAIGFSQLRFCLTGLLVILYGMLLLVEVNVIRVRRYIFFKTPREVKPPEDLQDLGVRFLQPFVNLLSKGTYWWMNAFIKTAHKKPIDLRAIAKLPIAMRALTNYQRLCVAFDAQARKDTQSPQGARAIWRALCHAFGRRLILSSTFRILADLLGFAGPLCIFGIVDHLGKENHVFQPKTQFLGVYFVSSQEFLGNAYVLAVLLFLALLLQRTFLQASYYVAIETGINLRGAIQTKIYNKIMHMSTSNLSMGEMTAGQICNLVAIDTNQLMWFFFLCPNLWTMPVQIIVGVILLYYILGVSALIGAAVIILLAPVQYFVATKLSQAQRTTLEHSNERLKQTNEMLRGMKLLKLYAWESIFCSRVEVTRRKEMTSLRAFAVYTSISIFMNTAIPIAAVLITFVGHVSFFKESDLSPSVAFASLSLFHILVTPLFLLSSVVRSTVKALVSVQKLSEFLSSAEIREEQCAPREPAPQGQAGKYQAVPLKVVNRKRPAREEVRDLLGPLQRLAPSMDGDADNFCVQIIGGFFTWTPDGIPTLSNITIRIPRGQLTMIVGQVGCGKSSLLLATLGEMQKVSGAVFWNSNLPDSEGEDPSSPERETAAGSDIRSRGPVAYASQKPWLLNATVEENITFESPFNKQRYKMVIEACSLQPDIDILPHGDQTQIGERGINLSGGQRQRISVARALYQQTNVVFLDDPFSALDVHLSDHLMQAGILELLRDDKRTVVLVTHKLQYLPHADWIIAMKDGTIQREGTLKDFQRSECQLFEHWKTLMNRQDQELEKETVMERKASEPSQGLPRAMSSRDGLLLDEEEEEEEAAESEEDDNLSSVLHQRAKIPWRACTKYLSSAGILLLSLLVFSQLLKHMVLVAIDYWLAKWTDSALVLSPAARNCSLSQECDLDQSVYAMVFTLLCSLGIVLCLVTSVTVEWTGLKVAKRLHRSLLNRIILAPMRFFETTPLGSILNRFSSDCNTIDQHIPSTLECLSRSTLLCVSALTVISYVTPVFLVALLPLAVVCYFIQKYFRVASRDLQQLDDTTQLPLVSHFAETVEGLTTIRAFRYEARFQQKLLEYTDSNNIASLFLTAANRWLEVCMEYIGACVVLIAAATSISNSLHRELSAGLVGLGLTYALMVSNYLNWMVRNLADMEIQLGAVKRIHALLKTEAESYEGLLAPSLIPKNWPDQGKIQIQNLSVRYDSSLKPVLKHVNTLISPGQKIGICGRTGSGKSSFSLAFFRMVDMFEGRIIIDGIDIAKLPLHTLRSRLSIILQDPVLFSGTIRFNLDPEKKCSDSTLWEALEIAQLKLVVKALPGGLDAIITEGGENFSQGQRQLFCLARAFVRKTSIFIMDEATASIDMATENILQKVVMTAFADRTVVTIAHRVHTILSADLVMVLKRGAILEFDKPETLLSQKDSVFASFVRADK
UniProt Q14654: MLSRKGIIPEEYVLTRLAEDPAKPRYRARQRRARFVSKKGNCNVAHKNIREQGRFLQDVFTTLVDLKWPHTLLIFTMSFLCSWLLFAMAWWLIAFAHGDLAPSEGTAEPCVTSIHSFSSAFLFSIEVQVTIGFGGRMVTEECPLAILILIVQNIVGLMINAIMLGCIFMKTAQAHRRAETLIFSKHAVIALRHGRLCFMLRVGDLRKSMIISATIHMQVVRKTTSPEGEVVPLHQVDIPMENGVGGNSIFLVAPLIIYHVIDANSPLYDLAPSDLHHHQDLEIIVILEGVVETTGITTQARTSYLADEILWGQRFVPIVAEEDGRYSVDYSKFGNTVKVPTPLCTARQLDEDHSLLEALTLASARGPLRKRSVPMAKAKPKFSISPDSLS

[2] = target: mutant KATP channel (HA-SUR1/Kir6.2-A28V) (rodent | human) (UniProt Q09427+Q14654); test: co-IP; lysates of transfected cells precipitated with HA antibody on agarose/protein A-Sepharose beads (2 ug antibody, 4 h, 4 °C), blotted with HA and GM130 antibodies; cells treated with DMSO, 10 uM or 100 uM carbamazepine for 16 h (Carb dose-dependently reduced the co-precipitate)
[3] = target: T1, GM130, cis-Golgi matrix protein (rat (endogenous in INS-1)); test: proximity ligation; Duolink PLA in INS-1 cells with anti-Kir6.2 and anti-GM130 primary antibodies, confocal microscopy, DAPI counterstain

binding [1]: binds
Molecule: mutant KATP channel (HA-SUR1/Kir6.2-A28V) (from UniProt Q09427 1-1582; Q14654 1-390) (complex)

binding [2]: binds
B1: GM130, cis-Golgi matrix protein (protein, UniProt Q62839 1-998)
chain: T1 sequence

binding [3]: binds
B2: endogenous Kir6.2 of INS-1 cells (protein, UniProt P70673 1-390)
chain: MLSRKGIIPEEYVLTRLAEDPTEPRYRTRERRARFVSKKGNCNVAHKNIREQGRFLQDVFTTLVDLKWPHTLLIFTMSFLCSWLLFAMVWWLIAFAHGDLAPGEGTNVPCVTSIHSFSSAFLFSIEVQVTIGFGGRMVTEECPLAILILIVQNIVGLMINAIMLGCIFMKTAQAHRRAETLIFSKHAVITLRHGRLCFMLRVGDLRKSMIISATIHMQVVRKTTSPEGEVVPLHQVDIPMENGVGGNSIFLVAPLIIYHVIDSNSPLYDLAPSDLHHHQDLEIIVILEGVVETTGITTQARTSYLADEILWGQRFVPIVAEEDGRYSVDYSKFGNTVKVPTPLCTARQLDEDRSLLDALTLASSRGPLRKRSVAVAKAKPKFSISPDSLS
